Publication PMC11887803
Results are given in words; binding and its absence hold for the method and conditions named. For some of these results: In cells and extracts the contact can be indirect. Each block holds one molecule with its values, some of them ahead of it.

Sequences of proteins named here, by UniProt entry; tags and fusion partners are left off. A change or cut given only in a name is not applied to a line headed by its entry. Residues count along the entry.
UniProt Q62261: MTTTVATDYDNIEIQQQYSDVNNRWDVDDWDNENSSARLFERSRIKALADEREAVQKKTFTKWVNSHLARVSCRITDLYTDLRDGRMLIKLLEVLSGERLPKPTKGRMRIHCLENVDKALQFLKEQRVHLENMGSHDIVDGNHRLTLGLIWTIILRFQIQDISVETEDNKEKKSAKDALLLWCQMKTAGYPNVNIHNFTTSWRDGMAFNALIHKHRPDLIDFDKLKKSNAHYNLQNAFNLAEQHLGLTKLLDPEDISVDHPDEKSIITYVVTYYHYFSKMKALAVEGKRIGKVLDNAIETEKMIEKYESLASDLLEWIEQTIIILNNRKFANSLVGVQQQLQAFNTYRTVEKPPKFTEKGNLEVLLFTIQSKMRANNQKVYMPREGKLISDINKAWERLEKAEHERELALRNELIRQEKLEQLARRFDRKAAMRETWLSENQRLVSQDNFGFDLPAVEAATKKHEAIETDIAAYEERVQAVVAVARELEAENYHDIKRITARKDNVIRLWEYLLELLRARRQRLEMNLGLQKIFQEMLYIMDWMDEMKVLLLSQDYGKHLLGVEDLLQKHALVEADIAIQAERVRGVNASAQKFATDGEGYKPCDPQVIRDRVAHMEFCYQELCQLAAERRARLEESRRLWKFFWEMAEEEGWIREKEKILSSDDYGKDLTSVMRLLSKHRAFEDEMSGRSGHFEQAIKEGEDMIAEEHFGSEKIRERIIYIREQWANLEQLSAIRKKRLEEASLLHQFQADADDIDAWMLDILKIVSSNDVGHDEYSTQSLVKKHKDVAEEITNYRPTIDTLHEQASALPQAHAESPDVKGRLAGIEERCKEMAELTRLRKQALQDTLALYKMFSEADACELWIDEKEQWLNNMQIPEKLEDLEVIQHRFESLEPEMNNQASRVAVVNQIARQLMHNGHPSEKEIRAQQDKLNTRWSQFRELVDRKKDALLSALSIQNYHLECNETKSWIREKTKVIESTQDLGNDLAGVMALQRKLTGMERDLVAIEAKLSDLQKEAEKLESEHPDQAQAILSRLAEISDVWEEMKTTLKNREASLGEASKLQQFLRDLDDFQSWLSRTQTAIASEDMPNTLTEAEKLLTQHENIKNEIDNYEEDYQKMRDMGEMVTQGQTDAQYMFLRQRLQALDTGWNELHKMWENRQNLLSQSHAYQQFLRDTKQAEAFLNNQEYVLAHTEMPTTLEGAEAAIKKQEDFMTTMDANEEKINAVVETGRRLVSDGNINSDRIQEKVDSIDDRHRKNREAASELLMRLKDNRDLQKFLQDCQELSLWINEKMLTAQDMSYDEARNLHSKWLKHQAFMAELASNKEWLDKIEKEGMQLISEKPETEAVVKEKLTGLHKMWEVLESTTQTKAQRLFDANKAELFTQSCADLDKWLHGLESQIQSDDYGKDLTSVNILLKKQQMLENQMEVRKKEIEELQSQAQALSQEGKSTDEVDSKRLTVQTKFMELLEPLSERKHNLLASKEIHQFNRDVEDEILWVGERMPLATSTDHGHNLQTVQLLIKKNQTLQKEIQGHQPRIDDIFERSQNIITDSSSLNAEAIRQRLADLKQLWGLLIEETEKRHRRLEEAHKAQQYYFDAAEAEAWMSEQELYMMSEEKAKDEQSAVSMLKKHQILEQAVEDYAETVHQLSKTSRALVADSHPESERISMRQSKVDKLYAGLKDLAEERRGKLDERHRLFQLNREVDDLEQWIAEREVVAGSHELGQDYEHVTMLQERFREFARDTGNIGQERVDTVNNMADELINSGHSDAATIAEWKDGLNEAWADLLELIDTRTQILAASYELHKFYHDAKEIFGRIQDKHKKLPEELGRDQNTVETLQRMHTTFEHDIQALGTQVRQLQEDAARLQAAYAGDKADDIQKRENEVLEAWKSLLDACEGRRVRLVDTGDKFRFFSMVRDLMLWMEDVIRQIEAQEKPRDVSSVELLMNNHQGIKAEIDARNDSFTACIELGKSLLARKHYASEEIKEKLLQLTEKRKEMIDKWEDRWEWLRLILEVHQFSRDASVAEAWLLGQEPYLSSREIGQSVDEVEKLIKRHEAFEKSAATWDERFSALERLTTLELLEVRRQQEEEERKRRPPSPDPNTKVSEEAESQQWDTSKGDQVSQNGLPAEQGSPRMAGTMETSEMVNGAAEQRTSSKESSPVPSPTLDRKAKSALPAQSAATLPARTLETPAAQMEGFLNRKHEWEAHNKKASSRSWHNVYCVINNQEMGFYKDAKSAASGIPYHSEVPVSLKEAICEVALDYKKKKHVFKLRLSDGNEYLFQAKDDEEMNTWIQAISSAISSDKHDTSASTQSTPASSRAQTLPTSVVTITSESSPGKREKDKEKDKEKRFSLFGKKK
βII-spectrin prey construct G (amino acids 185 to 411): residues 185-411 of Q62261

Legend:
[1] = target: T1, native Palm1 from brain lysate (UniProt Q9Z0P4); test: co-IP; from brain lysate with antibodies against the respective other protein; conditions not given
T1 sequence: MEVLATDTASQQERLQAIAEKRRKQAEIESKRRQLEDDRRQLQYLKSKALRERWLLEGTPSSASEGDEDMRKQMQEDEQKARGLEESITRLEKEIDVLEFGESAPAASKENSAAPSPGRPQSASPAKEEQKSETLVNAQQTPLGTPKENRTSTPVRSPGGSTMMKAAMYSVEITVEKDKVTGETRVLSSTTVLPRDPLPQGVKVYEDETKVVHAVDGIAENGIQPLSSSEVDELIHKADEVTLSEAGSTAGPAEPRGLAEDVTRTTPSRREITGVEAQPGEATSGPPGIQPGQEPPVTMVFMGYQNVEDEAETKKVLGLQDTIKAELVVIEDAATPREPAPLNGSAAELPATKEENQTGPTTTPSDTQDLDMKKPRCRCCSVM

[2] = target: T2, Palm1(1-263) ΔEx8 splice variant bait (mouse) (UniProt Q9Z0P4); test: two-hybrid; 1-by-1 test: LexA-DBD baits (pFBL23) and Gal4-AD preys (pP7) in mated diploid yeast (L40ΔGal4 x YHGX13); HIS3 reporter, spots on DO-3 medium with a 3AT series of 0, 1, 2, 5, 10, 20, 50, 100 and 200 mM
T2 sequence: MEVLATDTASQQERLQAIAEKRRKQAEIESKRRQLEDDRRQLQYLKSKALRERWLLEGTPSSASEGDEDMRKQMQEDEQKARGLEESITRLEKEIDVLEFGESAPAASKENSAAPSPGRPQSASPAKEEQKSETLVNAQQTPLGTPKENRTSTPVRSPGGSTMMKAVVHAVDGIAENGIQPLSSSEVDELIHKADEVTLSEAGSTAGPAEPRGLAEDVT

[3] = target: T3, Palm1ΔEx8 bait (Palm1 without exon 8, without the last 13 codons), N-Palm1-LexA-C (mouse) (UniProt Q9Z0P4); test: as above
T3 sequence: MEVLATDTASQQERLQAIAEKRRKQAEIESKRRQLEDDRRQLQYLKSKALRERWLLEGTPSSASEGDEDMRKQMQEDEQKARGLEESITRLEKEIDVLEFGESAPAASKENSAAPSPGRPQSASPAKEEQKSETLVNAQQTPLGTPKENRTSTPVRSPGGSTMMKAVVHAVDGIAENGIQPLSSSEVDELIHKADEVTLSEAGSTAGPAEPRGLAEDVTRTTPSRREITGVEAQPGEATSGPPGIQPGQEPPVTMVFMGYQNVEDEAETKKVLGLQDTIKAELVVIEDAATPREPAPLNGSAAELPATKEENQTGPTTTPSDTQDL

[4] = target: native βII-spectrin from brain lysate (UniProt Q62261); test: co-IP; from brain lysate with antibodies against the respective other protein; conditions not given

binding [1]: no binding
Molecule: native βII-spectrin from brain lysate (from UniProt Q62261 1-2363)

binding [2]: no binding | binding [3]: no binding
Molecule: βII-spectrin prey construct G (amino acids 185 to 411) (from UniProt Q62261-1 185-411) (domain or fragment)

binding [4]: no binding
B1: native Palm1 from brain lysate (protein, UniProt Q9Z0P4 1-383)
chain: T1 sequence
